# Results reported in the supplement of paper PMC10849652.
# Amino acid sequences for entries named in this document (tags omitted). A change or cut given only in a name is not applied to a line headed by its entry.
# UniProt Q15750: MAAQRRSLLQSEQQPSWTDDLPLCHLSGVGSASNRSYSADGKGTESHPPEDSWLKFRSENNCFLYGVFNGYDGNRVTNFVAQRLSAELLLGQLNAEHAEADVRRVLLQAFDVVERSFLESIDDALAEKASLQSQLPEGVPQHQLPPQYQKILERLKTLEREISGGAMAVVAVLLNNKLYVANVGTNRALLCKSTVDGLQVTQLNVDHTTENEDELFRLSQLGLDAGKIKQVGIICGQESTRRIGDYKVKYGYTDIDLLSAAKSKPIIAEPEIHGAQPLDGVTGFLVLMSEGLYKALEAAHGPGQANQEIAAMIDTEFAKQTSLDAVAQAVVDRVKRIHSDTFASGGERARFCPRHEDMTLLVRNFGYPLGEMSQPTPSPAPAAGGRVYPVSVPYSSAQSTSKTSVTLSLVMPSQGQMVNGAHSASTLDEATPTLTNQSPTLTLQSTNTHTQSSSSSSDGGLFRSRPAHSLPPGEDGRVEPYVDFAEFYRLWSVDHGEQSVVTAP
# UniProt Q13190: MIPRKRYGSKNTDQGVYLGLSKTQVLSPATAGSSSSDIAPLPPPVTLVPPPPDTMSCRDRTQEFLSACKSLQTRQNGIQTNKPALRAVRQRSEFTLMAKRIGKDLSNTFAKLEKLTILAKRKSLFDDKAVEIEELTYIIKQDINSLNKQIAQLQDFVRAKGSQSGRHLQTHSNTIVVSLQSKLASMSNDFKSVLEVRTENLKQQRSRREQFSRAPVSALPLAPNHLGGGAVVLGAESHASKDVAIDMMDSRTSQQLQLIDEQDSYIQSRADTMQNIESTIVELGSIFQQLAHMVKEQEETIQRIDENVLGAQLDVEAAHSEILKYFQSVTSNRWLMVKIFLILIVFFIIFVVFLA
# UniProt Q12962, whole entry, looked up: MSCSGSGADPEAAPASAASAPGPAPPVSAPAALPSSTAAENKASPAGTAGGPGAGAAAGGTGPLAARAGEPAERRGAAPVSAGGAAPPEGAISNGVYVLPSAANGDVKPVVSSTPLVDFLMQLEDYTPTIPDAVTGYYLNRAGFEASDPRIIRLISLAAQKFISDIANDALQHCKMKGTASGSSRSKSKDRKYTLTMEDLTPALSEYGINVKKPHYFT
# UniProt Q8NBJ7: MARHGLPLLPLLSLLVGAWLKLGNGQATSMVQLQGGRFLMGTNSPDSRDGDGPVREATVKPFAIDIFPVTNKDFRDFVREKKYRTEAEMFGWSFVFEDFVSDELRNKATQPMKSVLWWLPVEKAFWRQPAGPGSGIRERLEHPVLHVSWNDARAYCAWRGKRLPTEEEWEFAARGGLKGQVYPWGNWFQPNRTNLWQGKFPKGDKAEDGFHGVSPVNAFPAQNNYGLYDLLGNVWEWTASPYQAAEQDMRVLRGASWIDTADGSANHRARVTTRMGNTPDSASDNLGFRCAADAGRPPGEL
# UniProt Q15526: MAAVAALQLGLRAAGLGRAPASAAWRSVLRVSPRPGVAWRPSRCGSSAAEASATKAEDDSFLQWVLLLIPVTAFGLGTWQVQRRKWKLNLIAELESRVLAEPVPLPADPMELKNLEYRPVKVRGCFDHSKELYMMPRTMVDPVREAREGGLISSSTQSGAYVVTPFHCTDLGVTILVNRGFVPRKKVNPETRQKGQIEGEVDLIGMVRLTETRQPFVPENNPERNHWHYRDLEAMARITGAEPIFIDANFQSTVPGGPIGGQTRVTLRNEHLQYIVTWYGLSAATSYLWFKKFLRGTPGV
# UniProt O14662: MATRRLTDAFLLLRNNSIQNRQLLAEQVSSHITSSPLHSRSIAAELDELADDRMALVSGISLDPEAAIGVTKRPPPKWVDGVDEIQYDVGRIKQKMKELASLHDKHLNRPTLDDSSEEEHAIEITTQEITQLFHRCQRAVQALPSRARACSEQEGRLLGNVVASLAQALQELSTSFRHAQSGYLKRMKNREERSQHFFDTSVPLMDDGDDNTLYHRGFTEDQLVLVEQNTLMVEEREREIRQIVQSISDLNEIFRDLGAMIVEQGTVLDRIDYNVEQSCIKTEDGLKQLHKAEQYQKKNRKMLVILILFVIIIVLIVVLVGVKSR
# UniProt Q8NHG7: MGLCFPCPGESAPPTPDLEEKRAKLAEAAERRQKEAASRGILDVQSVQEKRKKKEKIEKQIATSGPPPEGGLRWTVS
# UniProt Q15208: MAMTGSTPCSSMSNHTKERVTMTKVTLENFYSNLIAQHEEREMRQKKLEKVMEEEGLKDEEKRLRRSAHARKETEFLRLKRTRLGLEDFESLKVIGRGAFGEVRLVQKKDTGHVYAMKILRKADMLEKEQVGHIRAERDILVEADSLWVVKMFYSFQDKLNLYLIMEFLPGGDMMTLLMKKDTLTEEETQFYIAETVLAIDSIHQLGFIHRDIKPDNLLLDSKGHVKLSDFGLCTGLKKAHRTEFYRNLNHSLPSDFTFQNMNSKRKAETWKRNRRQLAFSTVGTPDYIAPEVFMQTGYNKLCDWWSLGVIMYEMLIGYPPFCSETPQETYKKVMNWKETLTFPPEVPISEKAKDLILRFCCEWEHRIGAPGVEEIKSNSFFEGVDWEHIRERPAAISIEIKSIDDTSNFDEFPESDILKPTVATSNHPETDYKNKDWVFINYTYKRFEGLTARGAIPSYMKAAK
# UniProt O00506, whole entry, looked up: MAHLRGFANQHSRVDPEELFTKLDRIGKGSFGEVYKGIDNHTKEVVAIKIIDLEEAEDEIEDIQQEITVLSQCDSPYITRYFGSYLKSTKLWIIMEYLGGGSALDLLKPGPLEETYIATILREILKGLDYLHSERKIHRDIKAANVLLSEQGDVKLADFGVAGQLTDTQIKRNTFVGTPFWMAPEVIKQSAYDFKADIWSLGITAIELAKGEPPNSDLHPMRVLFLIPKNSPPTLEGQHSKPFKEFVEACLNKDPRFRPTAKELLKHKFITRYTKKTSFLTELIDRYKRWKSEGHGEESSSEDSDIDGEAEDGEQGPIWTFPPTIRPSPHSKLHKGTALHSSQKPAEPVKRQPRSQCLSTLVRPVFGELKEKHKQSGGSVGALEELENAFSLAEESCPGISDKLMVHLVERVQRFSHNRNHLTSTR
# UniProt Q9P289: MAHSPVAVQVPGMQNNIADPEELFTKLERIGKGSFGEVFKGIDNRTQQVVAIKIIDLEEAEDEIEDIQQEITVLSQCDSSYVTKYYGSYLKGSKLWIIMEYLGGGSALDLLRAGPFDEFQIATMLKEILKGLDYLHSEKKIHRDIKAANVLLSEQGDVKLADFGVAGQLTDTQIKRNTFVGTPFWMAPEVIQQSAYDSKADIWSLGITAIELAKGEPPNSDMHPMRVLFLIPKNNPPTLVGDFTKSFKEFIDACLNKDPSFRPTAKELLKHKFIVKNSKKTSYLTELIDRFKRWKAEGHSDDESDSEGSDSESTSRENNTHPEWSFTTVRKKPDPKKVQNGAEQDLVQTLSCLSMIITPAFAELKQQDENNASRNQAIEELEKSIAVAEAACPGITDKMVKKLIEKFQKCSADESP
# UniProt P46977: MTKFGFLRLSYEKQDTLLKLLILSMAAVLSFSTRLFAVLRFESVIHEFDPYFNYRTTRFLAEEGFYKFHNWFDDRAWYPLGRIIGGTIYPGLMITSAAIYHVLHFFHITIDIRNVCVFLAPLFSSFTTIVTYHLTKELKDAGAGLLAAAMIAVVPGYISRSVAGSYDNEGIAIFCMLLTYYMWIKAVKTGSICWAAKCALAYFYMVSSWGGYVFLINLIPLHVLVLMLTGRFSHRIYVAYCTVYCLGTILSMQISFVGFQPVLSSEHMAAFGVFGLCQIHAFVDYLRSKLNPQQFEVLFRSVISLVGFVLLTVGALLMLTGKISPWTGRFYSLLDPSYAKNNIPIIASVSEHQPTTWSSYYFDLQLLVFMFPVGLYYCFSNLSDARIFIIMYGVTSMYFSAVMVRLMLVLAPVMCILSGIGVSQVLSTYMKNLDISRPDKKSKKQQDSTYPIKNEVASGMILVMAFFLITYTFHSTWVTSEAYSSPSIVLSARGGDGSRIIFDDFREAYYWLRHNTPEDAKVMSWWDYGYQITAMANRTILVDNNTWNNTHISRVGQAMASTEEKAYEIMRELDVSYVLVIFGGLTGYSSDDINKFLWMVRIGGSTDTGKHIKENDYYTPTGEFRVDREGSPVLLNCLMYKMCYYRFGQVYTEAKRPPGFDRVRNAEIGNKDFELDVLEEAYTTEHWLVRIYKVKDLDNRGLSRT
# UniProt Q9ULQ0: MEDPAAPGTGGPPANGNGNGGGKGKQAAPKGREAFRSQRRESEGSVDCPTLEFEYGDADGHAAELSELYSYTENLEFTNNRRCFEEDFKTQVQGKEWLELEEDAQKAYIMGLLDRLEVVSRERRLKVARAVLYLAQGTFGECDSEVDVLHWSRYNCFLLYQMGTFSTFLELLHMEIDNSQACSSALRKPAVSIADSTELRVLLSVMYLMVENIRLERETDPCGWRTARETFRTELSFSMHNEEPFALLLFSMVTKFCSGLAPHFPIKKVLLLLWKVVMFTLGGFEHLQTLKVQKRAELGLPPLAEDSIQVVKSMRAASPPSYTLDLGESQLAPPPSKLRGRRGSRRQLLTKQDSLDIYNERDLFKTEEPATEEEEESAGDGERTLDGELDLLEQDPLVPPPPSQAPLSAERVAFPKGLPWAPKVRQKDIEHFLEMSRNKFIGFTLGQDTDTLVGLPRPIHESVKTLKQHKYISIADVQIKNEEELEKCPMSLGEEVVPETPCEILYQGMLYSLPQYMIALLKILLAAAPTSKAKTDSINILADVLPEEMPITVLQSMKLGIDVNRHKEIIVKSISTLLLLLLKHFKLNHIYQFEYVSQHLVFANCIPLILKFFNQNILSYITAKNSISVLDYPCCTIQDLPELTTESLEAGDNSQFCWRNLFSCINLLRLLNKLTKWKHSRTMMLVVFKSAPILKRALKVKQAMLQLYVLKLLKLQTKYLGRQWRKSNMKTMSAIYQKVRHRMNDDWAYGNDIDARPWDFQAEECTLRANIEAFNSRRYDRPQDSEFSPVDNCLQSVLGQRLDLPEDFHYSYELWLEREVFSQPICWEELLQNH
# UniProt Q9NRL3: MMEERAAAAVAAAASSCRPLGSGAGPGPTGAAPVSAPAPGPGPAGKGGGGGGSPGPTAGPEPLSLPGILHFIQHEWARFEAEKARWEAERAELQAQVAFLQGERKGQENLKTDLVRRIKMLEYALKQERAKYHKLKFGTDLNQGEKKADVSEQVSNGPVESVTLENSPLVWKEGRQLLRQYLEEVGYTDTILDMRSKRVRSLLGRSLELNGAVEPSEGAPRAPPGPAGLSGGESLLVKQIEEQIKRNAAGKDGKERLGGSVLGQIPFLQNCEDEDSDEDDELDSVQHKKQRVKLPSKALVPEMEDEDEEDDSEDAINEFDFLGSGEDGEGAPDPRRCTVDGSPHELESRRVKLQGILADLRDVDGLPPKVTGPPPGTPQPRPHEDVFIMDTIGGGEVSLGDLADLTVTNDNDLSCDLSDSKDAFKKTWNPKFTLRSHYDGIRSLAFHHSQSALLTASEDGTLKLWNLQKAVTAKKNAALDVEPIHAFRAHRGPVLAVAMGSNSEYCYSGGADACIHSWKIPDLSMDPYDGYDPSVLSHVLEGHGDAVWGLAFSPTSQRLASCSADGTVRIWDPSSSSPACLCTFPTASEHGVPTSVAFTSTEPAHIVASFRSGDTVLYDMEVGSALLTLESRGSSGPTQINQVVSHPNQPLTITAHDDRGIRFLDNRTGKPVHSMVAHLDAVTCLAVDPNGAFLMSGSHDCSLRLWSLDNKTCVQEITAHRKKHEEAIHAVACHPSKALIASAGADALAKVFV
# UniProt P51687: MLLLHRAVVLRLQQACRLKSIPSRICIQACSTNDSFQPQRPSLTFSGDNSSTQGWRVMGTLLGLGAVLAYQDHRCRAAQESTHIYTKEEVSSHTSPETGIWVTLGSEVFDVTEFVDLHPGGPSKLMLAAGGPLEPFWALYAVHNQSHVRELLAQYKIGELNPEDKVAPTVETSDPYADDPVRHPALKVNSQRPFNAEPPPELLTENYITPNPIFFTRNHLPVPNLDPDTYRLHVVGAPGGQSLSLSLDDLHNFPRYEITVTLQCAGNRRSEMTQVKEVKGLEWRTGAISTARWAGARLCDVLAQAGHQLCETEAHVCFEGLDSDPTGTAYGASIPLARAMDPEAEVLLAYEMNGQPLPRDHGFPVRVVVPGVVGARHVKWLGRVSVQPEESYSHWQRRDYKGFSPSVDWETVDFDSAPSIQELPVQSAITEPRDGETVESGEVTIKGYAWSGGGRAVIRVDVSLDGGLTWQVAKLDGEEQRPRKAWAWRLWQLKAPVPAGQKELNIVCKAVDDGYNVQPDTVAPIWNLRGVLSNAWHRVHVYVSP
# UniProt P56962: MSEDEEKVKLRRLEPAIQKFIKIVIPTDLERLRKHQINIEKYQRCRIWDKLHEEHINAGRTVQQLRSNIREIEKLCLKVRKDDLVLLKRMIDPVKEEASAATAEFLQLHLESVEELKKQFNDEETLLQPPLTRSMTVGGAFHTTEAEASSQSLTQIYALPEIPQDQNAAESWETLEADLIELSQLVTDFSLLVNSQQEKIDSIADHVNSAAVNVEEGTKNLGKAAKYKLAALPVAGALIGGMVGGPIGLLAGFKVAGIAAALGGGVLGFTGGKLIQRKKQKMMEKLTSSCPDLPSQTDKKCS
# This is one part of the list.
# Compound: C[C@@H](Oc1cc(-c2cnn(C3CCNCC3)c2)cnc1N)c1c(Cl)ccc(F)c1Cl [crizotinib]
# Assay: log2 fold change, soluble protein after heating vs DMSO (PISA); higher = thermal stabilisation; K562 lysate, 10 uM; active = over 0.2 and 3.5 SD of the protein, either way, in both replicates (recomputed)
# In short: (§1)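 Log-two fold change in thermal stability relative to solvent controls is reported from duplicates. For each sample, crude K562 extract from dounce-homogenised pellets in PBS pH 7.4 with 1 mM MgCl2, at 1 mg/mL protein, was treated with 10 μM compound for 30 min. Aliquots heated for 3 min across 48°C-58°C were pooled, brought to 0.5% NP-40 at 4°C and cleared at 21,000xg for 90 min. The supernatant was quantified by TMTpro 16plex LC-MS/MS with channel sums equalised.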
row,Target,log2 fold change
1,SUCLA2 (UniProt Q9P2R7),inactive: -0.053
2,TAB1 (UniProt Q15750),inactive: 0.01
3,STX5 (UniProt Q13190),inactive: -0.061
4,SYNGR2 (UniProt O43760),inactive: -0.016
5,STMN2 isoform 2 (UniProt Q93045),inactive: 0.094
6,TADA1 (UniProt Q96BN2),inactive: -0.208
7,STUB1 (UniProt Q9UNE7),inactive: -0.035
8,TAF10 (UniProt Q12962),inactive: 0.011
9,SUMF2 (UniProt Q8NBJ7),inactive: -0.045
10,STOM (UniProt P27105),inactive: 0.036
11,SURF1 (UniProt Q15526),inactive: -0.077
12,SYNCRIP (UniProt O60506),inactive: 0.036
13,STRN3 (UniProt Q13033),inactive: 0.014
14,STX16 isoform 2 (UniProt O14662),inactive: 0.018
15,STK11IP (UniProt Q8N1F8),inactive: -0.022
16,SUCLG1 (UniProt P53597),inactive: -0.08
17,STK39 (UniProt Q9UEW8),inactive: -0.063
18,STRAP isoform 2 (UniProt Q9Y3F4),inactive: 0.019
19,SUZ12 (UniProt Q15022),inactive: -0.021
20,SUMO3 isoform 2 (UniProt P55854),inactive: 0.026

row,Target,log2 fold change
1,TACC3 (UniProt Q9Y6A5),inactive: 0.032
2,SYNE2 isoform 2 (UniProt Q8WXH0),inactive: 0.058
3,SVIP (UniProt Q8NHG7),inactive: -0.037
4,STK38 (UniProt Q15208),inactive: 0.001
5,SYVN1 (UniProt Q86TM6),inactive: -0.046
6,STK25 (UniProt O00506),inactive: 0.008
7,STK26 (UniProt Q9P289),inactive: 0.007
8,STT3A (UniProt P46977),inactive: -0.001
9,STRADA (UniProt Q7RTN6),inactive: -0.004
10,STXBP1 (UniProt P61764),inactive: -0.026
11,STRIP2 (UniProt Q9ULQ0),inactive: -0.042
12,SURF4 (UniProt O15260),inactive: 0.031
13,SUPT16H (UniProt Q9Y5B9),inactive: -0.009
14,STRN4 isoform 3 (UniProt Q9NRL3),inactive: -0.012
15,SYTL4 (UniProt Q96C24),inactive: -0.016
16,STX8 (UniProt Q9UNK0),inactive: -0.052
17,SUOX (UniProt P51687),inactive: 0
18,STX7 (UniProt O15400),inactive: 0.039
19,STX17 (UniProt P56962),inactive: -0.031

# Compound: C[C@H](C1=CC=C(C=C1)C(=O)NC2=C3C=CNC3=NC=C2)N
# Assay: as above
# In short: as §1
row,Target,log2 fold change
1,SUCLA2 (UniProt Q9P2R7),inactive: -0.13
2,TAB1 (UniProt Q15750),inactive: 0.007
3,STX5 (UniProt Q13190),inactive: 0.072
4,SYNGR2 (UniProt O43760),inactive: -0.024
5,STMN2 isoform 2 (UniProt Q93045),inactive: 0.025
6,TADA1 (UniProt Q96BN2),inactive: -0.013
7,STUB1 (UniProt Q9UNE7),inactive: 0.004
8,TAF10 (UniProt Q12962),inactive: 0.039
9,SUMF2 (UniProt Q8NBJ7),inactive: -0.034
10,STOM (UniProt P27105),inactive: -0.053
11,SURF1 (UniProt Q15526),inactive: 0.085
12,SYNCRIP (UniProt O60506),inactive: 0.035
13,STRN3 (UniProt Q13033),inactive: 0.133
14,STX16 isoform 2 (UniProt O14662),inactive: 0.021
15,STK11IP (UniProt Q8N1F8),inactive: 0.004
16,SUCLG1 (UniProt P53597),inactive: 0.037
17,STK39 (UniProt Q9UEW8),inactive: -0.012
18,STRAP isoform 2 (UniProt Q9Y3F4),inactive: 0.074
19,SUZ12 (UniProt Q15022),inactive: 0.048
20,SUMO3 isoform 2 (UniProt P55854),inactive: -0.034

row,Target,log2 fold change
1,TACC3 (UniProt Q9Y6A5),inactive: -0.019
2,SYNE2 isoform 2 (UniProt Q8WXH0),active: -0.93
3,SVIP (UniProt Q8NHG7),inactive: 0.027
4,STK38 (UniProt Q15208),inactive: 0.017
5,SYVN1 (UniProt Q86TM6),inactive: -0.001
6,STK25 (UniProt O00506),inactive: -0.036
7,STK26 (UniProt Q9P289),inactive: -0.003
8,STT3A (UniProt P46977),inactive: -0.065
9,STRADA (UniProt Q7RTN6),inactive: 0.044
10,STXBP1 (UniProt P61764),inactive: -0.069
11,STRIP2 (UniProt Q9ULQ0),inactive: 0.052
12,SURF4 (UniProt O15260),inactive: -0.157
13,SUPT16H (UniProt Q9Y5B9),inactive: 0.024
14,STRN4 isoform 3 (UniProt Q9NRL3),inactive: -0.033
15,SYTL4 (UniProt Q96C24),inactive: -0.007
16,STX8 (UniProt Q9UNK0),inactive: 0.004
17,SUOX (UniProt P51687),inactive: -0.013
18,STX7 (UniProt O15400),inactive: -0.063
19,STX17 (UniProt P56962),inactive: 0.025
